No constants are given. Whether binding was seen depends on the method and setting. In cells and extracts the contact can be indirect. Here binding means that the protein was enriched with, or labelled near, the bait; the list need not be complete. For part of these data: A no says only that the protein was not detected with the bait. For part of these data: Sequences can lack the tags named with a protein.
T1: Tks5-BirA* (wild type Tks5α fused to the N-terminus of BirA*-HA) (UniProt Q5TCZ1)
T1 sequence: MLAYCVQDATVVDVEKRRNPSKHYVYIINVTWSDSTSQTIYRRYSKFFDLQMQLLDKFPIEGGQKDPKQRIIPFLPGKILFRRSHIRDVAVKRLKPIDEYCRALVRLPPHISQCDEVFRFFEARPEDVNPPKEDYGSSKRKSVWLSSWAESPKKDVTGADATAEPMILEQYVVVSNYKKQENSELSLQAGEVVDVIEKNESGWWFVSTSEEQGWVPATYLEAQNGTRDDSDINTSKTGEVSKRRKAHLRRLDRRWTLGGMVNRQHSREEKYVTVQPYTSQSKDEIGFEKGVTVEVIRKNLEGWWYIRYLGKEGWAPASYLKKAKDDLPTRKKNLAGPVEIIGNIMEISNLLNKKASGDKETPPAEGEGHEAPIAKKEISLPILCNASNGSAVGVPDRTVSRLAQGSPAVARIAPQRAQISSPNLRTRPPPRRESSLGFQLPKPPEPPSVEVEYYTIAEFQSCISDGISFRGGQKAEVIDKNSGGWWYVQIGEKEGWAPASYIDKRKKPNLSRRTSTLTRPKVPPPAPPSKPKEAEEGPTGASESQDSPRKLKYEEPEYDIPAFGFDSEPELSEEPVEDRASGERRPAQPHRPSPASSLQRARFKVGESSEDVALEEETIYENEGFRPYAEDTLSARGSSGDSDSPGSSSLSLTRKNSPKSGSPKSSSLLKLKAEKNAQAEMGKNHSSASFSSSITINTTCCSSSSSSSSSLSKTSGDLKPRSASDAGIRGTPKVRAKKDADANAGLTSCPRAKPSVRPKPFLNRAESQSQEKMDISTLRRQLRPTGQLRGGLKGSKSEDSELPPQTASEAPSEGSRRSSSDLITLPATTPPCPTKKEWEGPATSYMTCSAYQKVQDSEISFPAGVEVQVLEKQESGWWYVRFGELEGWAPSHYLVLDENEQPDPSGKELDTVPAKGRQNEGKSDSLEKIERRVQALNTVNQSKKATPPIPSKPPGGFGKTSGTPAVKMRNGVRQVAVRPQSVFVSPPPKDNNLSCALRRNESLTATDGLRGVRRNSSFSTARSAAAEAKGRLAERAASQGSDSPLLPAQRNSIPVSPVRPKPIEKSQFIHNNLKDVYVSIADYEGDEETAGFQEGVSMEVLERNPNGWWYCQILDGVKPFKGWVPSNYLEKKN

The chains behind the UniProt entries cited, without tags or fusion partners. Where a name states a change or a piece, a line headed by the entry shows the natural chain unless it says otherwise. Residues count along the entry.
UniProt P06709: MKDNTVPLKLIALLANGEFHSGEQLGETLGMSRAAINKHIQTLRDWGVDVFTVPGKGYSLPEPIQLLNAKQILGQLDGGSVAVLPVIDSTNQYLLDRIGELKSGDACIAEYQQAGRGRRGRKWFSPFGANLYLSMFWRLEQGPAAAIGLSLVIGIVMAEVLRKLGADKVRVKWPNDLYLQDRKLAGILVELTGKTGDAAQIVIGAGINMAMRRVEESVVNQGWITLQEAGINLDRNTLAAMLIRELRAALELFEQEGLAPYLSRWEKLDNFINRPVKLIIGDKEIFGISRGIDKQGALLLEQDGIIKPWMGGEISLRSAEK
UniProt P62993: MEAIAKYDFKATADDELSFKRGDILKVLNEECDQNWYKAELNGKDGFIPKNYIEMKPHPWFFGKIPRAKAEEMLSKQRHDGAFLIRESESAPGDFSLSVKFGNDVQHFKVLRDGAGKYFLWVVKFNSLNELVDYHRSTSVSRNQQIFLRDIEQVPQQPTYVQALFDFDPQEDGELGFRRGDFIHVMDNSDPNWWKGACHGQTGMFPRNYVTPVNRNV
UniProt O00401: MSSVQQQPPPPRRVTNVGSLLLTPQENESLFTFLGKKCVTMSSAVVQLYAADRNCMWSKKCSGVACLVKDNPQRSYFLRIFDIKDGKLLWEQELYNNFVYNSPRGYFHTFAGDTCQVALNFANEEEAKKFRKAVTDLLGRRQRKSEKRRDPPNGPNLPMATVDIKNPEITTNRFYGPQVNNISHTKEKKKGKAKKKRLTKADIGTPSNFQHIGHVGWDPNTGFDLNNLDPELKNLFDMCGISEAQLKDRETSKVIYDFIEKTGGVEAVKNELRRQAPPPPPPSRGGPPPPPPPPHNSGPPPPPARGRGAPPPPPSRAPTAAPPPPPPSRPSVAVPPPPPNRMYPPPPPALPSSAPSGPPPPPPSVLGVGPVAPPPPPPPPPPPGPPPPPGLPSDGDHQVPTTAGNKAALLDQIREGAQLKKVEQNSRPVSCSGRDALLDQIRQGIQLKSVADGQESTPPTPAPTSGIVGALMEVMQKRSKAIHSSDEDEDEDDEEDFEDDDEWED
UniProt Q9Y6M1: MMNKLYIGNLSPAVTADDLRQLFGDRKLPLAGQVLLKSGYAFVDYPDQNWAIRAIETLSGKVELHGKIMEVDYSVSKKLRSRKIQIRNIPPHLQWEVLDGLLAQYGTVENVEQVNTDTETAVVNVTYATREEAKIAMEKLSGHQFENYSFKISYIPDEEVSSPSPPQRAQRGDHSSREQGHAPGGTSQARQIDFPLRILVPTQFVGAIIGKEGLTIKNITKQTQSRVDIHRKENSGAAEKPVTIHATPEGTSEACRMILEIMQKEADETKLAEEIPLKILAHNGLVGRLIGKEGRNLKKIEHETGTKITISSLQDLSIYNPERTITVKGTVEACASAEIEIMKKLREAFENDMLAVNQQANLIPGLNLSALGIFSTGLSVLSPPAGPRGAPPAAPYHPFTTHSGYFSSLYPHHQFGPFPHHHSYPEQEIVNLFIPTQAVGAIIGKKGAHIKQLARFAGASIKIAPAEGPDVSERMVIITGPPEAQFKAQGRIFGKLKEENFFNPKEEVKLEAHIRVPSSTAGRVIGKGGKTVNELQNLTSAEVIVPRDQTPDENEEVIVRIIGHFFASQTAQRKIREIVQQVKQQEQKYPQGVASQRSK
UniProt Q70E73: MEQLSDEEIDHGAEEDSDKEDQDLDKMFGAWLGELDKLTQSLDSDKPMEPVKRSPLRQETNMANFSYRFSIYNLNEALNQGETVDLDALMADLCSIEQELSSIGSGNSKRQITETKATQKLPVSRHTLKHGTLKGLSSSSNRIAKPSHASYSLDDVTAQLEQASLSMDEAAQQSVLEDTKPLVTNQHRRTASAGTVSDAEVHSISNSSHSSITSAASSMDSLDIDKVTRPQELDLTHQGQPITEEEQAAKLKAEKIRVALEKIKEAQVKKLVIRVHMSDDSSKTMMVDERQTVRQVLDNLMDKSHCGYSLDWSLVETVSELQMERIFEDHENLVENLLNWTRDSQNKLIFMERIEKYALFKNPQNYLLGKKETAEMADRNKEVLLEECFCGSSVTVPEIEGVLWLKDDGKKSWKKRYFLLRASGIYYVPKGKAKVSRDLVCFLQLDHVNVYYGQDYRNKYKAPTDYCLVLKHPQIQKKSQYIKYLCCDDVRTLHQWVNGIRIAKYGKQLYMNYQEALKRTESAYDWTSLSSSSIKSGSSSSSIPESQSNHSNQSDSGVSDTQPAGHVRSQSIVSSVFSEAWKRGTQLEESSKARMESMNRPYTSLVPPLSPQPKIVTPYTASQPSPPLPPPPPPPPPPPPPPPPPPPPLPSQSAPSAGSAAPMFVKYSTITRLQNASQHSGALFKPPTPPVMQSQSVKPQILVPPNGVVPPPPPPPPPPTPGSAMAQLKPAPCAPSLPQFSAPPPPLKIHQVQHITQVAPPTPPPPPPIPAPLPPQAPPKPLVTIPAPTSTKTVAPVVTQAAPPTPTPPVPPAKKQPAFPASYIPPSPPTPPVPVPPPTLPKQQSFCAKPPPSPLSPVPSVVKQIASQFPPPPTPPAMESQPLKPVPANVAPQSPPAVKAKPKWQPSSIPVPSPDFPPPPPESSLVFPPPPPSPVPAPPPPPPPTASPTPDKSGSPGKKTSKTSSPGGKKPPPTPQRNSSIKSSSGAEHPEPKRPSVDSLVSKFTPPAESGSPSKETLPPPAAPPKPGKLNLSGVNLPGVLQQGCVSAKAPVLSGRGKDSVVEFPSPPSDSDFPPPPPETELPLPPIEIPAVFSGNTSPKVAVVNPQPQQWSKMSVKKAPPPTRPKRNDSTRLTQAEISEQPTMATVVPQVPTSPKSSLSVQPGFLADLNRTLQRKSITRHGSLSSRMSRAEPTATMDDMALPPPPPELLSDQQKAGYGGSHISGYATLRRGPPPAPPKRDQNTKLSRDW
UniProt Q9H6X2, residues 33-564: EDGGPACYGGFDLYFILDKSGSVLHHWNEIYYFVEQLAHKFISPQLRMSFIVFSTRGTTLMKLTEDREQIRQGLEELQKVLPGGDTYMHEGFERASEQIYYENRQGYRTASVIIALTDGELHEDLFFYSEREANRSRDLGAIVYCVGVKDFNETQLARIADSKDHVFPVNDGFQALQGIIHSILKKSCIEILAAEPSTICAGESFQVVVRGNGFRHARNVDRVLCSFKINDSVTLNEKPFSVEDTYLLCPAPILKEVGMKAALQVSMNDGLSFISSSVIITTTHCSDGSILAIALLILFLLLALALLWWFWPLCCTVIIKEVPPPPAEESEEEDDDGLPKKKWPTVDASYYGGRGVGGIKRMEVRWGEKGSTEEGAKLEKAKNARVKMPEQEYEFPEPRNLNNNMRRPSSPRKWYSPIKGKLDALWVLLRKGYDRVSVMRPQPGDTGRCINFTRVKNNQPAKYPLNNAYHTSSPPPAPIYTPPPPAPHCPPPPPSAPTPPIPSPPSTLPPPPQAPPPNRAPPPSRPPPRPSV
UniProt P27816: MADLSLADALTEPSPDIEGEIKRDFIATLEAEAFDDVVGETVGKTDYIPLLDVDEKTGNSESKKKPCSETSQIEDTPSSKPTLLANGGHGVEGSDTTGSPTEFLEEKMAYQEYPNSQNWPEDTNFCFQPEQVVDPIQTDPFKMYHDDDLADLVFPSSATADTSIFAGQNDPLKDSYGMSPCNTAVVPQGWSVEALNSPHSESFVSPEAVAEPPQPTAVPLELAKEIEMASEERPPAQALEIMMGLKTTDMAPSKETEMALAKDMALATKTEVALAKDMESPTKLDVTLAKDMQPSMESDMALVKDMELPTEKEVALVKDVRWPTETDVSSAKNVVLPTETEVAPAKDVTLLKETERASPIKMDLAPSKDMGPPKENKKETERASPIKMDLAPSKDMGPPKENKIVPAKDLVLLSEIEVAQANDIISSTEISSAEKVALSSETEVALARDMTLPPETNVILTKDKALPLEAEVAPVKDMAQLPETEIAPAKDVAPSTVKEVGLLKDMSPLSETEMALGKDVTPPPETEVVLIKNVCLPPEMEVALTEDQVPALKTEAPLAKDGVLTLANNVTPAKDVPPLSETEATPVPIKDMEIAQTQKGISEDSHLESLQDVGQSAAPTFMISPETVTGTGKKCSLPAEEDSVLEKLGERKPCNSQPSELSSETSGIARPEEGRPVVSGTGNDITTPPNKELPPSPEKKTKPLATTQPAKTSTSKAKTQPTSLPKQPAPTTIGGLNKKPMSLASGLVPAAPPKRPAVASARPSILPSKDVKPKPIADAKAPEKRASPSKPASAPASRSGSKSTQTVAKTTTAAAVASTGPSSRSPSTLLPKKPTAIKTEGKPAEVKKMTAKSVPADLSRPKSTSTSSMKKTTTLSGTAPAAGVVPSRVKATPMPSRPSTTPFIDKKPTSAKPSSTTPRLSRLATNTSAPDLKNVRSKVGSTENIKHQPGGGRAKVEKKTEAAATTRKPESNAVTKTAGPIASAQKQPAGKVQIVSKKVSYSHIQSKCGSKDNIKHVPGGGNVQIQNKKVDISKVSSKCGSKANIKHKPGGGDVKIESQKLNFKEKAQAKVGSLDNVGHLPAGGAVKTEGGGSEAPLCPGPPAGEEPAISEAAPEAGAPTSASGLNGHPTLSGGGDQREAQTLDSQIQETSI
UniProt Q07157: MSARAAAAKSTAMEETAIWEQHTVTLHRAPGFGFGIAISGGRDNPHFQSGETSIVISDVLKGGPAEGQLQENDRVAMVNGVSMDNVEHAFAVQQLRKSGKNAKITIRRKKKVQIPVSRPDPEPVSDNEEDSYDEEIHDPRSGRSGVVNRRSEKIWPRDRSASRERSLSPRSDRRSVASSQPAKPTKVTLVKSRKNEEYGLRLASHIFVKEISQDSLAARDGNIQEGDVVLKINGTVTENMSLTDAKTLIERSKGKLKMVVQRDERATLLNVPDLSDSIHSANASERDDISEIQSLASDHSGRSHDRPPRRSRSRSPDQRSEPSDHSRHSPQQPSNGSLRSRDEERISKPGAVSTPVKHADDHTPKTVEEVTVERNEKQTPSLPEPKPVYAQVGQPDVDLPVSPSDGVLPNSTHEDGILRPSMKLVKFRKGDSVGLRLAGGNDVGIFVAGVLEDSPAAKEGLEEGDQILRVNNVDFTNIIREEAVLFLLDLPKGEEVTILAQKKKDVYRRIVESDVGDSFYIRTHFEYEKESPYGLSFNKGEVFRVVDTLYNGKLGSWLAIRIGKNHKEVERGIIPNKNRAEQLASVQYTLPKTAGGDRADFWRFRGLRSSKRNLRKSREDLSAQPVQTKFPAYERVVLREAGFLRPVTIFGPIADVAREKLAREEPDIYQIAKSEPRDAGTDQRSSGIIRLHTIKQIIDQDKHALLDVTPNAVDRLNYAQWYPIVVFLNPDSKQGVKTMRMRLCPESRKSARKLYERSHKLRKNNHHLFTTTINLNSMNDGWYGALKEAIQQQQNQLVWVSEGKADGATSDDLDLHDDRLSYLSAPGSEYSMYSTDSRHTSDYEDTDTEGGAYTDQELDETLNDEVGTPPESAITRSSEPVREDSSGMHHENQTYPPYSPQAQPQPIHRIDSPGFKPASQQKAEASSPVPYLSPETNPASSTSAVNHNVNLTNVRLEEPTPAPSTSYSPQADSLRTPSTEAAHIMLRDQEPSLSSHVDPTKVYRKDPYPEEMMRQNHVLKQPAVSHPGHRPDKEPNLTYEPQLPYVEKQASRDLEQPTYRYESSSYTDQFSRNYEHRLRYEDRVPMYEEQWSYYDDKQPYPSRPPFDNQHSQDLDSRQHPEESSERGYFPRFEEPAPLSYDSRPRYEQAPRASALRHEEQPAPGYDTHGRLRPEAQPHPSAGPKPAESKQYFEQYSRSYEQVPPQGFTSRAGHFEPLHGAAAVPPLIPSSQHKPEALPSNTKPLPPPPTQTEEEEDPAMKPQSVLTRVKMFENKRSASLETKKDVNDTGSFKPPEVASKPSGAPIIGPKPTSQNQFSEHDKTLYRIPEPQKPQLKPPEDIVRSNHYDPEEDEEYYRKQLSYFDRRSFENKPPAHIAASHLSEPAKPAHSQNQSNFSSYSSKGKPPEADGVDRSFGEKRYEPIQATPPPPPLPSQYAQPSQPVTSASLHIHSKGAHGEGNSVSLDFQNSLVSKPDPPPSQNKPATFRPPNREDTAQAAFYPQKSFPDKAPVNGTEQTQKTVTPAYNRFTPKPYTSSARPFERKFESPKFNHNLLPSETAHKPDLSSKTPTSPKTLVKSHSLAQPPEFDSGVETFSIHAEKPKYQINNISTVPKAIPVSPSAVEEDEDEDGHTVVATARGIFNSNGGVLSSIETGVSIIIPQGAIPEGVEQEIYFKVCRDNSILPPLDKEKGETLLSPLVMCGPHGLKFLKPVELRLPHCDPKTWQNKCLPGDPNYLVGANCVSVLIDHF

T2: Tks5-BirA* (wild type Tks5α fused to the N-terminus of BirA*-HA), Q5TCZ1
T2 chain: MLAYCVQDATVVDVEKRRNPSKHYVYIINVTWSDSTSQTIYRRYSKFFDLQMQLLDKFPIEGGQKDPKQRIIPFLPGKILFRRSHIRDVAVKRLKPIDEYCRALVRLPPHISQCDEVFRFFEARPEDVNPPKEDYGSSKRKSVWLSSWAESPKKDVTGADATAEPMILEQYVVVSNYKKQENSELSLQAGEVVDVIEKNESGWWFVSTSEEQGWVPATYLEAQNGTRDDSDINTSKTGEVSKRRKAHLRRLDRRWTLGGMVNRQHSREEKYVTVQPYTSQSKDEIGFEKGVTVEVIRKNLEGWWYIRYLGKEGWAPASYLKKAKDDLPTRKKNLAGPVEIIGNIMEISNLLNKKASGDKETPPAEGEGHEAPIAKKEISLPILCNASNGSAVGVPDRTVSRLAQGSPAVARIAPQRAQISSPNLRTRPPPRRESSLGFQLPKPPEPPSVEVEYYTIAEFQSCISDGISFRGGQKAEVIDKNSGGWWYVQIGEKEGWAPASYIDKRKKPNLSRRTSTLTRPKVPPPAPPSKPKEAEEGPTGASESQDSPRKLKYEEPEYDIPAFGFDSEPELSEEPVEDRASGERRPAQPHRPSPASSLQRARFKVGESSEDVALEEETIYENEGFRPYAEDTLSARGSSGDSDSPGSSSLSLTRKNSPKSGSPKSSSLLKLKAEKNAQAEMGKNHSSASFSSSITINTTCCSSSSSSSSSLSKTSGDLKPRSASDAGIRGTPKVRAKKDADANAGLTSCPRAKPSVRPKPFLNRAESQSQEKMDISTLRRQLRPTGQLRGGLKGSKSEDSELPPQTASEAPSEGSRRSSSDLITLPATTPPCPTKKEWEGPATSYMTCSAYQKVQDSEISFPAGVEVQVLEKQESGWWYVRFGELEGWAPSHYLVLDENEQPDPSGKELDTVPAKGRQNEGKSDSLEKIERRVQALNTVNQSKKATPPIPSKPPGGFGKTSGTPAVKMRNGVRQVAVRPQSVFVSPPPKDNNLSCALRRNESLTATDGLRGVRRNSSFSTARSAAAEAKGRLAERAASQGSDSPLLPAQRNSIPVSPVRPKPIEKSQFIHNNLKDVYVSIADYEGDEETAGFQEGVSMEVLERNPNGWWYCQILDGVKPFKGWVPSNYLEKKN

B1: PDZ and LIM domain protein 4 (protein, UniProt P50479 1-330)
chain: MPHSVTLRGPSPWGFRLVGGRDFSAPLTISRVHAGSKAALAALCPGDLIQAINGESTELMTHLEAQNRIKGCHDHLTLSVSRPEGRSWPSAPDDSKAQAHRIHIDPEIQDGSPTTSRRPSGTGTGPEDGRPSLGSPYGQPPRFPVPHNGSSEATLPAQMSTLHVSPPPSADPARGLPRSRDCRVDLGSEVYRMLREPAEPVAAEPKQSGSFRYLQGMLEAGEGGDWPGPGGPRNLKPTASKLGAPLSGLQGLPECTRCGHGIVGTIVKARDKLYHPECFMCSDCGLNLKQRGYFFLDERLYCESHAKARVKPPEGYDVVAVYPNAKVELV
B2: SHC-transforming protein 1 (protein, UniProt P29353 1-583)
chain: MDLLPPKPKYNPLRNESLSSLEEGASGSTPPEELPSPSASSLGPILPPLPGDDSPTTLCSFFPRMSNLRLANPAGGRPGSKGEPGRAADDGEGIVGAAMPDSGPLPLLQDMNKLSGGGGRRTRVEGGQLGGEEWTRHGSFVNKPTRGWLHPNDKVMGPGVSYLVRYMGCVEVLQSMRALDFNTRTQVTREAISLVCEAVPGAKGATRRRKPCSRPLSSILGRSNLKFAGMPITLTVSTSSLNLMAADCKQIIANHHMQSISFASGGDPDTAEYVAYVAKDPVNQRACHILECPEGLAQDVISTIGQAFELRFKQYLRNPPKLVTPHDRMAGFDGSAWDEEEEEPPDHQYYNDFPGKEPPLGGVVDMRLREGAAPGAARPTAPNAQTPSHLGATLPVGQPVGGDPEVRKQMPPPPPCPGRELFDDPSYVNVQNLDKARQAVGGAGPPNPAINGSAPRDLFDMKPFEDALRVPPPPQSVSMAEQLRGEPWFHGKLSRREAEALLQLNGDFLVRESTTTPGQYVLTGLQSGQPKHLLLVDPEGVVRTKDHRFESVSHLISYHMDNHLPIISAGSELCLQQPVERKL
B3: Cortactin, Q14247 1-550 (protein)
chain: MWKASAGHAVSIAQDDAGADDWETDPDFVNDVSEKEQRWGAKTVQGSGHQEHINIHKLRENVFQEHQTLKEKELETGPKASHGYGGKFGVEQDRMDKSAVGHEYQSKLSKHCSQVDSVRGFGGKFGVQMDRVDQSAVGFEYQGKTEKHASQKDYSSGFGGKYGVQADRVDKSAVGFDYQGKTEKHESQRDYSKGFGGKYGIDKDKVDKSAVGFEYQGKTEKHESQKDYVKGFGGKFGVQTDRQDKCALGWDHQEKLQLHESQKDYKTGFGGKFGVQSERQDSAAVGFDYKEKLAKHESQQDYSKGFGGKYGVQKDRMDKNASTFEDVTQVSSAYQKTVPVEAVTSKTSNIRANFENLAKEKEQEDRRKAEAERAQRMAKERQEQEEARRKLEEQARAKTQTPPVSPAPQPTEERLPSSPVYEDAASFKAELSYRGPVSGTEPEPVYSMEAADYREASSQQGLAYATEAVYESAEAPGHYPAEDSTYDEYENDLGITAVALYDYQAAGDDEISFDPDDIITNIEMIDDGWWRGVCKGRYGLFPANYVELRQ
B4: formin binding protein FNBP1 (protein, UniProt Q96RU3 1-617)
chain: MSWGTELWDQFDNLEKHTQWGIDILEKYIKFVKERTEIELSYAKQLRNLSKKYQPKKNSKEEEEYKYTSCKAFISNLNEMNDYAGQHEVISENMASQIIVDLARYVQELKQERKSNFHDGRKAQQHIETCWKQLESSKRRFERDCKEADRAQQYFEKMDADINVTKADVEKARQQAQIRHQMAEDSKADYSSILQKFNHEQHEYYHTHIPNIFQKIQEMEERRIVRMGESMKTYAEVDRQVIPIIGKCLDGIVKAAESIDQKNDSQLVIEAYKSGFEPPGDIEFEDYTQPMKRTVSDNSLSNSRGEGKPDLKFGGKSKGKLWPFIKKNKLMSLLTSPHQPPPPPPASASPSAVPNGPQSPKQQKEPLSHRFNEFMTSKPKIHCFRSLKRGLSLKLGATPEDFSNLPPEQRRKKLQQKVDELNKEIQKEMDQRDAITKMKDVYLKNPQMGDPASLDHKLAEVSQNIEKLRVETQKFEAWLAEVEGRLPARSEQARRQSGLYDSQNPPTVNNCAQDRESPDGSYTEEQSQESEMKVLATDFDDEFDDEEPLPAIGTCKALYTFEGQNEGTISVVEGETLYVIEEDKGDGWTRIRRNEDEEGYVPTSYVEVCLDKNAKDS

What was measured:
[1] = target: T1, Tks5-BirA* (wild type Tks5α fused to the N-terminus of BirA*-HA); assay: proximity labelling; BioID in living MDA-MB-231 cells stably expressing the BirA* fusion, seeded on gelatin, 50 uM biotin for 16 h; avidin-bead capture; LC-MS/MS with label-free quantification against the BirA* control pulldown, 1% permutation FDR
[2] = target: T1, Tks5-BirA* (wild type Tks5α fused to the N-terminus of BirA*-HA); assay: proximity labelling; BioID in living MDA-MB-231 cells stably expressing the BirA* fusion, seeded on gelatin, 50 uM biotin for 16 h; lysis (500 mM NaCl, 0.4% SDS, 2% Triton X-100); biotinylated proteins captured on avidin-coated beads; western blot with specific antibodies; also after knock-down of endogenous Tks5 (biotinylation unchanged)
[3] = target: BirA* alone (BirA(R118G)-HA) (UniProt P06709); assay: as above
[4] = target: T1, Tks5-BirA* (wild type Tks5α fused to the N-terminus of BirA*-HA); assay: as above; remark: listed apart in the source
[5] = target: ΔPX-Tks5-BirA* (Tks5α lacking its PX domain fused to the N-terminus of BirA*-HA); assay: as above
[6] = target: T2, Tks5-BirA* (wild type Tks5α fused to …); assay: as above; conditions: remark: other sources report otherwise
[7] = target: T2, Tks5-BirA* (wild type Tks5α fused to …); assay: proximity labelling; BioID in living MDA-MB-231 cells stably expressing the BirA* fusion, seeded on gelatin, 50 uM biotin for 16 h; avidin-bead capture; LC-MS/MS with label-free quantification against the BirA* control pulldown, 1% permutation FDR; conditions: remark: other sources report otherwise

Molecule	binding [1]	further results
5′-inositol lipid phosphatase Synaptojanin-1 (from UniProt O43426 1-1573)	binds	–
Arpin (from UniProt Q7Z6K5 1-226)	binds	–
Dihydropyrimidase-like protein 3 (from UniProt Q14195 1-570)	binds	–
Drebrin-like protein (from UniProt Q9UJU6 1-430)	binds	–
Grb2 (from UniProt P62993 1-217)	–	binding [2]: no binding; binding [3]: no binding
N-WASP (from UniProt O00401 1-505)	–	binding [2]: binds; binding [3]: no binding
PDZ and LIM domain protein 1 (from UniProt O00151 1-329)	binds	–
RNA binding protein IGF2BP2/IMP2 (from UniProt Q9Y6M1 1-599)	binds	–
Ras-associated and pleckstrin homology containing protein 1 (from UniProt Q70E73 1-1250)	binds	–
Reticulon-4 (from UniProt Q9NQC3-2)	binds	binding [2]: binds; binding [3]: no binding
anthrax toxin and collagen I receptor ANTXR1/TEM8 (from UniProt Q9H6X2 33-564)	binds	–
breast cancer anti-estrogen resistance protein 3 (from UniProt O75815 1-825)	binds	–
microtubule-associated protein 4 (from UniProt P27816 1-1152)	binds	binding [2]: binds
tight junction protein TJP2 (from UniProt Q9UDY2 1-1190)	binds	–
zonula occludens protein ZO-1/TJP1 (from UniProt Q07157 1-1748)	binds	–
B1	binds	–
B2	binds	binding [4]: binds; binding [5]: binds
B3	–	binding [6]: binds; binding [7]: binds
B4	binds	–
